The other results are listed elsewhere or left out. Part of the spread comes from offsets between plates or batches.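 Hits were defined as a z-score below −3.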
biological target: T1, YTHDF1 YTH domain (aa 365-554) (UniProt Q9BYJ9); assay: tryptophan fluorescence intensity z-score (mean); higher = higher fluorescence, less quenching (negative = binding / quenching); conditions: 10 µM
T1 sequence (whole entry): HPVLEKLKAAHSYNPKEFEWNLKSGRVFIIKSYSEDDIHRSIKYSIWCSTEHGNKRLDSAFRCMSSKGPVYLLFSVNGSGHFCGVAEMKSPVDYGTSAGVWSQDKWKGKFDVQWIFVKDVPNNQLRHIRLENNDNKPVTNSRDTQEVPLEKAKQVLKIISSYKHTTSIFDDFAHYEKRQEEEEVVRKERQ

Tryptophan fluorescence intensity z-score, inactive:
CC1=C(C(=O)O)N2C(=O)[C@@H](NC(=O)[C@H](N)c3ccc(O)cc3)[C@H]2SC1 (plate: M 1-2) 0.877, NC(=O)C1(N2CCCCC2)CCN(CCCC(=O)c2ccc(F)cc2)CC1 (plate: M 11-12) -0.801, CNC1(C)C2CCC(C2)C1(C)C (stereo not given) (plate: M 3-4) 0.0356, CCCCCCCCCCCCCCCC[N+](C)(C)C (plate: M 7-8) -0.43, CCCc1nc(C(C)(C)O)c(C(=O)OCc2oc(=O)oc2C)n1Cc1ccc(-c2ccccc2-c2nnn[nH]2)cc1 (plate: M 9-10) -0.233, Cn1c(=O)c2c(ncn2CC(O)CO)n(C)c1=O (stereo not given) (plate: M 3-4) -0.171, NC(=O)c1cccnc1 (plate: M 11-12) 0.251, C[C@@H]1CC2C3C[C@H](F)C4=CC(=O)C=C[C@]4(C)[C@@]3(F)[C@@H](O)C[C@]2(C)[C@@]1(O)C(=O)COC(=O)C(C)(C)C (stereo not given in full) (plate: M 3-4) -0.388, C=C(NC(=O)C(=C)NC(=O)c1csc(C2=N[C@@H]3c4csc(n4)[C@H]4NC(=O)c5csc(n5)[C@H]([C@](C)(O)[C@@H](C)O)NC(=O)[C@H]5CSC(=N5)/C(=C/C)NC(=O)[C@H]([C@@H](C)O)NC(=O)c5csc(n5)[C@]3(CC2)NC(=O)[C@H](C)NC(=O)C(=C)NC(=O)[C@H](C)NC(=O)[C@H]([C@@H](C)CC)N[C@@H]2C=Cc3c([C@H](C)O)cc(nc3[C@H]2O)C(=O)O[C@@H]4C)n1)C(N)=O (plate: M 9-10) -0.997, CN1CCC[C@H]1c1cccnc1 (plate: M 13-14) 0.299, CCCC(C(=O)OCCN(CC)CC)(c1ccccc1)c1ccccc1 (plate: M 7-8) -0.192, COc1c(OC)c2occc2c2oc(=O)ccc12 (plate: M 17-18) -0.316, CC(C)=CCC/C(C)=C/COc1ccc2ccc(=O)oc2c1 (plate: M 19-20) -0.139, Clc1ccc(COC(Cn2ccnc2)c2ccc(Cl)cc2Cl)cc1 (stereo not given) (plate: M 7-8) -0.509, NC(=O)NO (plate: M 3-4) 0.112, Clc1ccccc1C(c1ccccc1)(c1ccccc1)n1ccnc1 (plate: M 1-2) 0.237, CO/N=C1\CN(c2nc3c(cc2F)c(=O)c(C(=O)O)cn3C2CC2)CC1CN (stereo not given) (plate: M 11-12) 0.273, CCCCC(CC)COC(=O)c1ccccc1O (stereo not given) (plate: M 13-14) 0.205, C=C1CC=C(C)CC[C@@H]2[C@@H]1CC2(C)C (plate: M 17-18) 0.459, CCN(CCCc1ccccc1)CCCc1ccccc1 (plate: M 1-2) 0.265, CC(=O)[C@H]1CC[C@H]2[C@@H]3CC=C4C[C@@H](OC(=O)CCC(=O)O)CC[C@]4(C)[C@H]3CC[C@]12C (plate: M 11-12) 0.133, C[C@H]1CC[C@@H](C(C)(C)O)CC2=C1CC[C@@H]2C (plate: M 21-22) 0.241, CC[C@]1(O)C[C@@H]2CN(CCc3c([nH]c4ccccc34)[C@@](C(=O)OC)(c3cc4c(cc3OC)N(C)[C@H]3[C@@](O)(C(=O)OC)[C@H](OC(C)=O)[C@]5(CC)C=CCN6CC[C@]43[C@@H]65)C2)C1 (plate: M 5-6) -0.73, O=C(O)c1cc(O)c(O)c(O)c1 (plate: M 1-2) 0.258, CCN(CC)C(=O)N1CCN(C)CC1 (plate: M 1-2) 0.0567, O=P(O)(O)C(O)(Cc1cccnc1)P(=O)(O)O (plate: M 11-12) -0.458, O=C(O)/C=C/C=C/c1ccc2c(c1)OCO2 (plate: M 21-22) 0.64, CC(C)CCC[C@@H](C)[C@H]1CC[C@H]2[C@@H]3CC=C4C[C@@H](O)CC[C@]4(C)[C@H]3CC[C@]12C (plate: M 5-6) -0.139, CCCCCC1C(=O)CCC1CC(=O)O (stereo not given) (plate: M 21-22) 0.16, CN(C)CCC(c1ccccc1)c1ccccn1 (stereo not given) (plate: M 3-4) -0.319, C=CC(C1=CC(=O)C(OC)=CC1=O)c1ccc(O)cc1 (stereo not given) (plate: M 15-16) -0.695, O=C(O)c1cc(=O)c2c(OCC(O)COc3cccc4oc(C(=O)O)cc(=O)c34)cccc2o1 (plate: M 1-2) 0.411, Nc1nc(=O)c2c([nH]1)NCC(CNc1ccc(C(=O)N[C@@H](CCC(=O)O)C(=O)O)cc1)N2C=O (stereo not given in full) (plate: M 3-4) 0.0628, NC[C@H]1O[C@H](O[C@H]2[C@@H](O[C@@H]3O[C@H](CO)[C@@H](O)[C@H]3O)[C@@H](O)[C@H](N)C[C@@H]2N)[C@H](N)[C@@H](O)[C@@H]1O (plate: M 19-20) 0.572, CCCCOc1ccc(CC(=O)NO)cc1 (plate: M 23-24) 0.308, CC(=O)OC(C)C[N+](C)(C)C (stereo not given) (plate: M 3-4) -0.473, C=CCc1ccccc1OCC(O)CNC(C)C (stereo not given) (plate: M 13-14) 0.566, NC[C@H]1CC[C@H](C(=O)O)CC1 (plate: M 7-8) -0.129, Oc1c(Cl)cc(Cl)cc1Sc1cc(Cl)cc(Cl)c1O (plate: M 1-2) -0.133, Cc1ccc(O)c([C@H](CCN(C(C)C)C(C)C)c2ccccc2)c1 (plate: M 9-10) -0.2, CCCCC[C@H](CC(=O)NO)C(=O)N[C@H](C(=O)N1CCC[C@H]1CO)C(C)C (plate: M 15-16) 0.609, CC(=O)OCC(=O)[C@@]1(O)CC[C@H]2[C@@H]3CCC4=CC(=O)C=C[C@]4(C)[C@H]3[C@@H](O)C[C@@]21C (plate: M 5-6) 0.0105, C[C@]12CCC(=O)C=C1CC[C@@H]1[C@@H]2[C@@H](O)C[C@@]2(C)[C@H]1CC[C@]2(O)C(=O)COP(=O)(O)O (plate: M 3-4) -0.446, C/C=C(\C)C(=O)O[C@@H]1c2c(ccc3ccc(=O)oc23)OC(C)(C)[C@@H]1OC(C)=O (plate: M 19-20) 0.106, CC(C)CCC[C@@H](C)[C@H]1CC[C@H]2[C@@H]3C[C@@H](O)[C@@]4(O)C[C@@H](O)CC[C@]4(C)[C@H]3CC[C@]12C [CHOLESTAN-3beta,5alpha,6beta-TRIOL] (plate: M 15-16) 0.46, CC(C)c1c(O)ccc2c1CCC1[C@@](C)(C=O)CCC[C@]21C (stereo not given in full) (plate: M 13-14) 0.652, NCCc1ccc(O)c(O)c1 (plate: M 3-4) 0.384, NCCc1ccc(O)c(O)c1 (plate: M 21-22) 0.732, C[C@H](CS)C(=O)N1CCC[C@H]1C(=O)O (plate: M 5-6) -0.0741, CN(Cc1cc(Br)cc(Br)c1N)C1CCCCC1 (plate: M 7-8) -0.371, CC1(C)O[C@@H]2C[C@H]3[C@@H]4C[C@H](F)C5=CC(=O)C=C[C@]5(C)[C@H]4[C@@H](O)C[C@]3(C)[C@]2(C(=O)CO)O1 (plate: M 7-8) -0.306, COC(=O)[C@@]1(C)CCC[C@]2(C)c3ccc(O)c(C(C)C)c3CCC12 (stereo not given in full) (plate: M 15-16) 0.443, CC(CN(C)C)CN1c2ccccc2CCc2ccccc21 (stereo not given) (plate: M 7-8) -0.379, CC(C)NCC(O)COc1cccc2[nH]ccc12 (stereo not given) (plate: M 5-6) 0.186, CC(C)=CCC[C@@H](C)[C@@H]1CC[C@]2(C)C3=C(CC[C@@]12C)[C@@]1(C)CC[C@H](O)C(C)(C)[C@@H]1CC3 (plate: M 15-16) 0.494, CC(=O)/C(=C\c1ccccc1)CC(=O)O (plate: M 23-24) 0.13, OC(CCN1CCCC1)(c1ccccc1)C1CCCCC1 (stereo not given) (plate: M 5-6) -0.137, C[N+](C)(C)C[C@H](O)CC(=O)[O-] (plate: M 11-12) 0.0145, CC1=C(/C=C/C(C)=C/C=C/C(C)=C/C=C/C=C(C)/C=C/C=C(C)/C=C/C(=O)[C@]2(C)C[C@@H](O)CC2(C)C)C(C)(C)C[C@H](O)C1 (plate: M 21-22) 0.106, C[C@H]1[C@H]2CC[C@H]3[C@@H]4CC=C5C[C@@H](N(C)C)CC[C@]5(C)[C@H]4CC[C@]23CN1C (plate: M 19-20) 0.555, Nc1nc(N)c2nc(-c3ccccc3)c(N)nc2n1 (plate: M 5-6) 0.193, CC(C)=CCCC1(C)C=Cc2c(O)c3c(c(CC=C(C)C)c2O1)OC12C(=CCCC1C(C)(C)O[C@@]2(C/C=C(\C)C(=O)O)C(=O)O)C3=O (stereo not given in full) (plate: M 15-16) -1.83, C=C1CC[C@H](O)C/C1=C/C=C1\CCC[C@]2(C)[C@@H]([C@H](C)/C=C/[C@H](C)C(C)C)CC[C@@H]12 (plate: M 3-4) -0.153, CC(C)(C)NC(=O)[C@H]1CC[C@H]2[C@@H]3CC[C@H]4NC(=O)C=C[C@]4(C)[C@H]3CC[C@]12C (plate: M 13-14) 0.257, C=CC1=C(C)/C(=C/c2[nH]c(Cc3[nH]c(/C=C4\NC(=O)C(C)=C4C=C)c(C)c3CCC(=O)O)c(CCC(=O)O)c2C)NC1=O (plate: M 17-18) -0.955

From the supplement of paper PMC9578143, “Small-Molecule Ebselen Binds to YTHDF Proteins Interfering with the Recognition of N^6-Methyladenosine-Modified RNAs” (ACS Pharmacology & Translational Science, 2022)
